Data taken from patent CN109897110A.
Results are given in words; binding and its absence hold for the method and conditions named. Some binding calls cover weakened binding; strength is not graded here.

Protein sequences, listed by entry. Tags and fused reporters are not part of them. Lines headed by an entry give the natural chain unless they say otherwise; changes in a name come on top.
UniProt Q8NBP7: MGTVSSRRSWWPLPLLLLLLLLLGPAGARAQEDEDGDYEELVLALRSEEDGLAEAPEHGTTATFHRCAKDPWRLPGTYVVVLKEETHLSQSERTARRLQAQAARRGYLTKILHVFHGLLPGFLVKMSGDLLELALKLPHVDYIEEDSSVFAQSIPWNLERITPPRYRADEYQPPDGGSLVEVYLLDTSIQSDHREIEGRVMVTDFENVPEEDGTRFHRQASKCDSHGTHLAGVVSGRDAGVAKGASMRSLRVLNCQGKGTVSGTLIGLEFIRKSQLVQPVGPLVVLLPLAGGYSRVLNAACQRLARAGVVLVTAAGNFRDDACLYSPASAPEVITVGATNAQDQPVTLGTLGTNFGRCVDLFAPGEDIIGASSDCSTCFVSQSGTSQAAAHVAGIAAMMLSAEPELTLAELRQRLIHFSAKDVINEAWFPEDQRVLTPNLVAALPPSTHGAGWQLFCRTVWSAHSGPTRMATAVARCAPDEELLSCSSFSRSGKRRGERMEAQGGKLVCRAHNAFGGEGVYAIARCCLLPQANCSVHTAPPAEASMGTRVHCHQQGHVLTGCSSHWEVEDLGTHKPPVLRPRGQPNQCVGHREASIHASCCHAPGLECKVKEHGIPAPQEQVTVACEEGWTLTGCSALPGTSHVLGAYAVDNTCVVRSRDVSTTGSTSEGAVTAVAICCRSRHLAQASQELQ

Experiments:
[1] = biological target: 人PCSK9抗原多肽 (前蛋白转化酶枯草溶菌素9, PCSK9) (human) (UniProt Q8NBP7); test: ProteOn (SPR), PCSK9 immobilised on chip
[2] = biological target: 人PCSK9抗原多肽 (前蛋白转化酶枯草溶菌素9, PCSK9) (human) (UniProt Q8NBP7); test: ELISA, PCSK9 coated (100 ng), purified nanobody, anti-HA detection

binding [1]: binds | binding [2]: binds
B1: PCSK9纳米抗体 (VHH, not shown: small tags and cut ends)
VHH: ESGGGSVQAGGSLRLSCTVSGYTYSSNCMGWFRQAPGKEHEGVASIYIGGGSTYYADSVKGRFTISQDNAKNTVYLQMNSLKPEDTAMYYCAVGCQGLVDFGYWDQGTQVTVSS
